system: K562 cells; assay: MTT cytotoxicity assay, K562; assay type: cell-based, human; settings: ratio of IC50 for HUVEC and K562
Protocol: Human umbilical vein endothelial cells (purchased from Life Technologies, Carlsbad, CA, USA) were cultured according to the manufacturer’s instructions in Medium 200 supplemented with Low Serum Growth Supplement. 1 × 10^4 cells were seeded on each well on a 96-well plate (Nunc, Roskilde, Denmark). The HeLa (human cervix carcinoma, cat. #93021013), CFPAC (human pancreatic adenocarcinoma, cat. #91112501), K562 (chronic myelogenous leukemia, cat. #89121407), HL-60 (acute myelogenous leukemia, cat. #98070106), and MOLT-4 (Human acute T lymphoblastic leukemia, cat. #85011413) cells were purchased from European Collection of Authenticated Cell Cultures (ECACC). They were cultured in an RPMI 1640 medium supplemented with antibiotics (streptomycin, penicillin) and 10% fetal calf serum (20% for HL60), in a 5% CO2-95% air atmosphere. 7 × 10^3 cells were seeded on each well on a 96-well plate (Nunc). 24 hours later the cells were exposed to the test compounds. The aliquots of stock solutions of the test compounds (freshly prepared in DMSO) were added to the cell cultures to yield final concentrations of 1, 10^−1, 10^−2, 10^−3, 10^−4, and 10^−5 mM. The concentration of DMSO in the cell culture medium was 1%. The IC50 value (the concentration of a test compound required to reduce the cell survival fraction to 50% of the control) was calculated from a dose-response curve and used as a measure of cellular sensitivity to a given treatment. The IC50 values are given as means (± standard deviation (SD)) from 2 independent experiments with 4 technical replicates. The cytotoxicity of all compounds was determined by the MTT (3-(4,5-dimethylthiazol-2-yl)-2,5-diphenyltetrazolium bromide) assay (Sigma, St. Louis, MO, USA). Briefly, after 24 h or 48 h of incubation with a given compound, the cells were treated with the MTT reagent and incubation was continued for 2 h. MTT-formazan crystals were dissolved in 20% SDS and 50% DMF at pH 4.7 and VIS light absorption was measured at 570 and 650 nm on a microplate reader FLUOstar Omega (BMG Labtech, Offenburg, Germany). As a control (100% viability), cells grown in the presence of 1% DMSO were used.

Compound	TI (therapeutic index)
CCC12C(=O)C(CC)(C(c3ccccc3)=C1c1ccccc1)C1C(=O)N(CCN(C)C)C(=O)C12 (centres unmarked) [Compound 1]	10
CCN(CC)CCN1C(=O)C2C(C1=O)C1(CC)C(=O)C2(CC)C(c2ccccc2)=C1c1ccccc1 (centres unmarked) [Compound 2]	22
CCC12C(=O)C(CC)(C(c3ccccc3)=C1c1ccccc1)C1C(=O)N(CCN3CCCCC3)C(=O)C12 (centres unmarked) [Compound 3]	50
CCC12C(=O)C(CC)(C(c3ccccc3)=C1c1ccccc1)C1C(=O)N(CCCN(C)C)C(=O)C12 (centres unmarked) [Compound 4]	12.5
CCC12C(=O)C(CC)(C(c3ccccc3)=C1c1ccccc1)C1C(=O)N(CC(O)CNC(C)C)C(=O)C12 (centres unmarked) [Compound 5]	100
CN(C)CCN1C(=O)C2C(C1=O)C1(c3ccccc3)CC2(c2ccccc2)C(c2ccccc2)=C1c1ccccc1 (centres unmarked) [Compound 6]	100
O=C(CCCCC1SCC2NC(=O)NC21)NCC(O)CN1C(=O)C2C(C1=O)C1(c3ccccc3)CC2(c2ccccc2)C(c2ccccc2)=C1c1ccccc1 (centres unmarked) [Compound 6b]	0.5
CC12C(=O)C(C)(C(c3ccccc3)=C1c1ccccc1)C1C(=O)N(C3CCC(=O)NC3=O)C(=O)C12 (centres unmarked) [Compound 7, 4-(2,6-dioxopiperidin-3-yl)-1,7-dimethyl-8,9-diphenyl-4-azatricyclo[5.2.1.0^2,6]dec-8-ene-3,5,10-trione]	1.2
CCC12C(=O)C(CC)(C(c3ccccc3)=C1c1ccccc1)C1C(=O)N(C3CCC(=O)NC3=O)C(=O)C12 (centres unmarked) [Compound 8, 4-(2,6-dioxopiperidin-3-yl)-1,7-diethyl-8,9-diphenyl-4-azatricyclo[5.2.1.0^2,6]dec-8-ene-3,5,10-trione]	2.6
CC(C)C[C@H](NC(=O)[C@H](Cc1ccccc1)NC(=O)c1cnccn1)B(O)O [bortezomib, reference compound]	0.25
Nc1ccn([C@@H]2O[C@H](CO)[C@@H](O)[C@@H]2O)c(=O)n1 [cytarabine, reference compound]	3.3
COc1cccc2c1C(=O)c1c(O)c3c(c(O)c1C2=O)C[C@@](O)(C(=O)CO)C[C@@H]3O[C@H]1C[C@H](N)[C@H](O)[C@H](C)O1 [doxorubicin, reference compound]	0.67
CCc1c2c(nc3ccc(OC(=O)N4CCC(N5CCCCC5)CC4)cc13)-c1cc3c(c(=O)n1C2)COC(=O)[C@]3(O)CC [irinotecan, reference compound]	3
CNC(=O)c1cc(Oc2ccc(NC(=O)Nc3ccc(Cl)c(C(F)(F)F)c3)cc2)ccn1 [sorafenib, reference compound]	6.7
